Values quoted from earlier work, collected in US20240197687A1, “METHODS OF TREATING NEUROINFLAMMATION AND INHIBITING MONOAMINE OXIDASE-A AND RESTORING/UPREGULATING/INCREASING IL-13 AND AND PGC-1 BY ADMINISTERING ORAL DOSAGE FORM CONTAINING MICRONIZED AND NONMICRONIZED PARTICULATE METAXALONE, ALGINIC ACID AND PROPYLENE GLYCOL ALGINATE” (Primus Pharmaceuticals, Inc., priority 2022, published 2024).

System: PINP rats
Conditions: rat; paclitaxel 2 mg/kg i.p. every other day, cumulative 8 mg/kg; cited from earlier work

For `COc1ccc(CC(C)NCC(O)c2ccc(O)c(NC=O)c2)cc1` (centres unmarked) [formoterol], the “established PINP (mechanical allodynia, paw withdrawal thresholds)” value is listed as “attenuated” and the “onset of PINP” value is listed as “delayed”.
